This passage reports binding results from publication PMC10454621.

These are yes or no findings as the source states them, for the method shown. Binding can be weak; no strength is given.

The target of assay [1] is insulin. Put plainly: far-UV CD spectroscopy; monomeric form of the mammalian protein (0.5 mg/mL) mixed with vicilin amyloid fibrils (0.1 mg/mL), incubated for 2 h; interaction read from a change in the CD spectrum; both purified.
Assay [2] has as its target insulin. As to the kind of experiment: far-UV CD spectroscopy; aggregated or fibrillar form of the mammalian protein (0.5 mg/mL; for lysozyme during fibrillogenesis and after its completion) mixed with vicilin amyloid fibrils (0.1 mg/mL), incubated for 2 h; interaction read from a change in the CD spectrum; both purified.

B1: 7S seed storage globulin vicilin of the garden pea Pisum sativum L. (protein, UniProt P13918 29-459)
chain: RSDPQNPFIFKSNKFQTLFENENGHIRLLQKFDQRSKIFENLQNYRLLEYKSKPHTIFLPQHTDADYILVVLSGKAILTVLKPDDRNSFNLERGDTIKLPAGTIAYLVNRDDNEELRVLDLAIPVNRPGQLQSFLLSGNQNQQNYLSGFSKNILEASFNTDYEEIEKVLLEEHEKETQHRRSLKDKRQQSQEENVIVKLSRGQIEELSKNAKSTSKKSVSSESEPFNLRSRGPIYSNEFGKFFEITPEKNPQLQDLDIFVNSVEIKEGSLLLPHYNSRAIVIVTVNEGKGDFELVGQRNENQQEQRKEDDEEEEQGEEEINKQVQNYKAKLSSGDVFVIPAGHPVAVKASSNLDLLGFGINAENNQRNFLAGDEDNVISQIQRPVKELAFPGSAQEVDRILENQKQSHFADAQPQQRERGSRETRDRLSSV
For B1, the binding entry was “binds weakly” in assay [1] and “binds” in assay [2].
